Measurements as given in the supplement of paper PMC10338343.
± gives the standard deviation. The entries are a selection whose mix differs from that of the whole data set. The uncertainty is large for many entries.

Tested on: MIWI (PIWIL1) piRISC loaded with L1MC piRNA (30 nt)
Assay: pre-steady-state target cleavage rate (min^-1); MIWI and MILI are mouse PIWI proteins and EfPiwi is from a freshwater sponge; tags in brackets are library labels; higher = faster piRNA-guided slicing of the target
Settings: guide: L1MC piRNA 5'p-UAACUAAAUACUAUGCAAGCUGUAGGUCCU
In short: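 For Cleave-'n-Seq, a transcribed, DNA-blocked target RNA library […] met 1 nM active affinity-purified piRISC with one synthetic guide at 33 °C for 0–8 or 0–960 min in HEPES–potassium acetate buffer, with or without 500 nM GTSF1 partner protein. Uncleaved targets were sequenced and normalised to depth and weakly complementary targets, with three trials pooled and k3 capped at 0.0001 min^-1. A burst-and-steady-state fit supplied the pre-steady-state cleavage rate.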

[1] = auxiliary factor: 500 nM mouse GTSF1
[2] = auxiliary factor: none (no GTSF1)
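Also: 1 nM active piRISC with 0.1 nM target library at 33 °C single turnover.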

| Sequence | pre-steady-state target cleavage rate [1] | pre-steady-state target cleavage rate [2] |
| --- | --- | --- |
| UCCUGCUACAGCUUGCAAUCUAUUUUCAAA | 0.00167 ± 0.0051 | 0.000219 ± 0.019 |
| AGGACCUACAGCUUGCAUGUAUUUAGUUA | 0.485 ± 0.048 | 0.00718 ± 0.0034 |
| UGGACCUACAGCUUGAUAGUAUUUAGUUA | 1.03 ± 0.096 | 0.0103 ± 0.003 |
| AGGACCUACACCUUGCAUAGUAUUUAGUUA | 1.17 ± 0.037 | 0.0855 ± 0.015 |
| UCCAGCAACAGCUUGCAUAGUAUUUAGUUA | 1.19 ± 0.049 | 0.0797 ± 0.014 |
| UCGUCCUACAGCUUGCAAAGUAUUUAGUUA | 1.3 ± 0.032 | 0.0388 ± 0.0068 |
| ACCUCCUACAGCUUGCAUAGUAUUUAGUUA | 1.35 ± 0.052 | 0.0784 ± 0.012 |
| UCGUCCUACUGCUUGCAUAGUAUUUAGUUA | 1.14 ± 0.048 | 0.0572 ± 0.0094 |
| UCGACCUUCAGCUUGCAAAGUAUUUAGUUA | 1.33 ± 0.045 | 0.0401 ± 0.0087 |
| UCGACCUACAGCUGCAUAGUAUUUAGUUA | 1.3 ± 0.079 | 0.00665 ± 0.0025 |
| UCCACCUACAGCAUGCAUAGUAUUUAGAUA | 0.423 ± 0.045 | 0.00605 ± 0.0027 |
| UCCUGGAUGUCGAACCAUAGUAUUUAGAUA | 0.000263 ± 0.021 | 0.000157 ± 0.018 |
| UCCUGGAACAGCUGCAUAGUAUUUAGUUA | 0.767 ± 0.044 | 0.00757 ± 0.0034 |
| UGGACCUGCAGCUUGCAUAGUAUUUAGUUA | 1.57 ± 0.099 | 0.0683 ± 0.013 |
| AGGACCAACAGCUUGCAUAGUAUUUAGUUA | 1.4 ± 0.05 | 0.122 ± 0.021 |
| UGGACGUACUGCUUGCAUAGUAUUUAGUUA | 1.01 ± 0.051 | 0.056 ± 0.0091 |
| UCGACGUACACCUUGCAUAGUAUUUAGUUA | 1.23 ± 0.026 | 0.0575 ± 0.0089 |
| UGGACCUACAGCUUGCAUACAAUUUAGAAA | 0.00256 ± 0.004 | 0.000913 ± 0.0046 |
| UGGACCUACAGAUUGCAUAGUAUUUAGUUA | 1.12 ± 0.11 | 0.042 ± 0.0077 |
| UCCUGGAUCAGCUUGCAUAGUAUUUAGUUUA | 1.64 ± 0.071 | 0.0415 ± 0.011 |

Copied from the list.
UGGACCUACAGCUUGCAUACAAUUUAGAAA – pre-steady-state target cleavage rate [2]: 0.000913 ± 0.0046
AGGACCAACAGCUUGCAUAGUAUUUAGUUA – pre-steady-state target cleavage rate [2]: 0.122 ± 0.021
